In assay [1] the target is T1, NPR3-GFP (35S:NPR3-GFP Arabidopsis transgenic line) (Arabidopsis) (UniProt Q8L746).
T1 sequence: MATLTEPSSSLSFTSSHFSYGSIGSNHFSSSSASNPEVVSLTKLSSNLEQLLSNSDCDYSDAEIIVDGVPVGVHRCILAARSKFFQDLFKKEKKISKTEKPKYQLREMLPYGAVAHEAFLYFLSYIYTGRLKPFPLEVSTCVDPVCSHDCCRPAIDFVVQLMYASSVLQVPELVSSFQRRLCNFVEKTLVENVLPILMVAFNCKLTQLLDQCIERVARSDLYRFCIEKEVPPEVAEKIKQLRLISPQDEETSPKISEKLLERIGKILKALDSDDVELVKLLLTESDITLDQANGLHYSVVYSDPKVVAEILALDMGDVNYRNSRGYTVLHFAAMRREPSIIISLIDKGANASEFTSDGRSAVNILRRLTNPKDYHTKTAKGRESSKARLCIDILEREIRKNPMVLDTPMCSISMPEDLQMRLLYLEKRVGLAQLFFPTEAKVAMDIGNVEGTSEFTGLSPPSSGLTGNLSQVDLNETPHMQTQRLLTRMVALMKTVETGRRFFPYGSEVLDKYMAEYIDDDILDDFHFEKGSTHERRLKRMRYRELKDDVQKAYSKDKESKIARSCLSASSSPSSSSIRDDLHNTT
The assay is described as follows: co-IP; Arabidopsis lines 35S:HA-JAZ1/35S:NPR3-GFP, /35S:NPR4-GFP or /35S:GFP, 4 h.p.i. with Psm ES4326/avrRpt2 (OD600nm=0.2) plus 40 μM MG115; GFP-Trap_A beads 2 h at 4 °C; blot with HA antibody.

For assay [2], the target named is T2, NPR4-GFP (35S:NPR4-GFP Arabidopsis transgenic line) (Arabidopsis) (UniProt Q5ICL9).
T2 sequence: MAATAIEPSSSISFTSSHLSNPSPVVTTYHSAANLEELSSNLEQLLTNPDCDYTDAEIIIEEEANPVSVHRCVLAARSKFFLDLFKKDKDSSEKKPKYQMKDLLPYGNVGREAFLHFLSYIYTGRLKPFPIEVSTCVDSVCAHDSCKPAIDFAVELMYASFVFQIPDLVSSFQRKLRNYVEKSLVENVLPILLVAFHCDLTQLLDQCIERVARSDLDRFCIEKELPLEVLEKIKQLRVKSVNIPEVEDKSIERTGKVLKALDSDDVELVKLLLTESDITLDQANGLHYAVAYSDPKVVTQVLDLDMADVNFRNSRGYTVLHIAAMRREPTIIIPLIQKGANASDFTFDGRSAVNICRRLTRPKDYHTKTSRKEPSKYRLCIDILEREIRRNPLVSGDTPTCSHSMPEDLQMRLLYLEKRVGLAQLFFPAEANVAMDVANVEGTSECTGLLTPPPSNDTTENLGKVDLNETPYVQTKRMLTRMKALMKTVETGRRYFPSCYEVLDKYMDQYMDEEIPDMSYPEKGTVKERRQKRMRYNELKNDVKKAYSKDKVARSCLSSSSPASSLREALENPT
The description is as above.

Assay [3] concerns the target T3, NPR3 fused with the DNA binding domain (BD) (Arabidopsis) (UniProt Q8L746).
T3 sequence: T1 sequence
The assay is described as follows: two-hybrid; AD-JAZ (pGADT7, AH109) mated with BD-NPR3 or its derivatives (pGBKT7, Y187); growth on SD-Leu-Trp-His-Ade plates without SA.

Assay [4] has as its target T3, NPR3 fused with the DNA binding domain (BD) (Arabidopsis). Nature of the assay: two-hybrid; AD-JAZ (pGADT7, AH109) mated with BD-NPR3 or its derivatives (pGBKT7, Y187); growth on SD-Leu-Trp-His-Ade plates with 100 μM SA.
Assay [5] addresses T4, NPR4 fused with the DNA binding domain (BD) (Arabidopsis) (UniProt Q5ICL9).
T4 sequence: T2 sequence
The assay is described as follows: two-hybrid; AD-JAZ (pGADT7) mated with BD-NPR4 (pGBKT7); SD-Leu-Trp-His-Ade plates without and with 100 μM SA; the text does not tell on which plates each result was seen.

The target in another assay is T5, NPR4-nLuc (Arabidopsis) (UniProt Q5ICL9).
T5 sequence: T2 sequence
The assay is described as follows: split reporter; split luciferase; cLuc-JAZ and NPR3-nLuc or NPR4-nLuc transiently co-expressed in N. benthamiana leaves for 2 days; 1 mM luciferin; images 0 and 3 h after 1 mM SA treatment.

The next assay deals with T6, NPR3-nLuc (Arabidopsis) (UniProt Q8L746).
T6 sequence: T1 sequence
The description is as above.

Assay [6] addresses T7, NPR3-GFP (expressed in N. benthamiana) (Arabidopsis) (UniProt Q8L746).
T7 sequence: T1 sequence
Nature of the assay: co-IP; Myc-JAZ1 co-expressed with NPR3-GFP, NPR4-GFP or GFP in N. benthamiana leaves; extract in 50 mM Tris pH 7.5, 150 mM NaCl, 0.1% Triton X-100, 0.2% NP-40, 40 μM MG115; 100 μM SA added; GFP-Trap_A beads 2 h at 4 °C; blot with Myc antibody.

Assay [7] concerns the target T8, NPR4-GFP (expressed in N. benthamiana) (Arabidopsis) (UniProt Q5ICL9).
T8 sequence: T2 sequence
The assay is described as above.

For the next assay, the target named is GST-JAZ1 (Arabidopsis). The assay is described as follows: pull-down; GST-JAZ1 or GST on Glutathione magnetic beads incubated 2 h at 4 °C with protein extract of NPR3-GFP or NPR4-GFP from NahG N. benthamiana, treated with or without 1 mM SA or 100 μM MeJA 3 h before collection; blot with GFP antibody; only the target purified.

These results are taken from article PMC5062614.

No constants are given. Whether binding was seen depends on the method and setting. For some of these results: Binding can be weak; no strength is given. Tags and fused reporters may be left off the sequences shown. For some of these results: Binding seen in cells or lysates may run through a third protein.

Take HA-JAZ1 (Arabidopsis): the binding result in [1] and in [2] was “binds” each time.
“JAZ1 fused with the transcriptional activation domain (AD) (Arabidopsis)”: the binding result is “no binding (only without SA in the yeast medium)” in assay [3], “binds” in [4] and “no binding” in [5].
On to “JAZ2 fused with the transcriptional activation domain (AD) (Arabidopsis)”, for which the binding result in assay [3] was “no binding (only without SA in the yeast medium)”; in assay [4], “binds”.
With “JAZ5 fused with the transcriptional activation domain (AD) (Arabidopsis)”, the binding entry is reported as “no binding (only without SA in the yeast medium)” in [3] and “binds” in assay [4].
With “JAZ6 fused with the C-terminal half of luciferase (cLuc) (Arabidopsis)”, the binding result with NPR4-nLuc (Arabidopsis) and in the assay with NPR3-nLuc (Arabidopsis) was “binds” each time.
As to “JAZ6 fused with the transcriptional activation domain (AD) (Arabidopsis)”, the binding entry in assay [3] and in assay [4] was “binds” throughout.
Regarding Myc-JAZ1 (Arabidopsis), the binding result in [6] and in assay [7] was “binds” each time.
Regarding cLuc-JAZ1 (Arabidopsis), the binding result with NPR4-nLuc (Arabidopsis) and with NPR3-nLuc (Arabidopsis) was “binds” throughout.

B1: NPR3-GFP (expressed in N. benthamiana) (protein, UniProt Q8L746 1-586)
chain: T1 sequence
Consider B1, for which the binding result with GST-JAZ1 (Arabidopsis) is “binds”.

B2: NPR4-GFP (expressed in N. benthamiana) (protein, UniProt Q5ICL9 1-574)
chain: T2 sequence
In the case of B2, the binding result in the assay with GST-JAZ1 (Arabidopsis) is “binds”.
